Measured values as given in paper PMC4237420.
Results are given in words; binding and its absence hold for the method and conditions named. Binding seen in cells or lysates may run through a third protein.

Chains of the proteins cited; added tags and fusions are not shown.
UniProt P34730: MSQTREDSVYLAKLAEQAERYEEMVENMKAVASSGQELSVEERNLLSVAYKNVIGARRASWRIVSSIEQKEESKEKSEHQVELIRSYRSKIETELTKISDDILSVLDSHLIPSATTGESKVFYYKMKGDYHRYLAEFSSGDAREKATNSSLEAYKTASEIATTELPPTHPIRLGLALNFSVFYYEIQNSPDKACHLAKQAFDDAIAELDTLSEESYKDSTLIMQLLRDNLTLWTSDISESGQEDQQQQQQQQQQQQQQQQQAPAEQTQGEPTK
UniProt P29311: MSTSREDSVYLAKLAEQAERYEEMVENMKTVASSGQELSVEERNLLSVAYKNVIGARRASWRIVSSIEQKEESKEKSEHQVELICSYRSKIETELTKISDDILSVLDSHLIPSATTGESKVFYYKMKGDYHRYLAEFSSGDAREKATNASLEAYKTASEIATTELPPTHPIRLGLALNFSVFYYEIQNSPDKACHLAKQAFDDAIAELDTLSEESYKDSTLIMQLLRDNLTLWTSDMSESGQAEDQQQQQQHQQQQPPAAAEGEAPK

Biological target: T1, SBP-Sps1-T12A (S. cerevisiae) (UniProt P08458)
T1 sequence: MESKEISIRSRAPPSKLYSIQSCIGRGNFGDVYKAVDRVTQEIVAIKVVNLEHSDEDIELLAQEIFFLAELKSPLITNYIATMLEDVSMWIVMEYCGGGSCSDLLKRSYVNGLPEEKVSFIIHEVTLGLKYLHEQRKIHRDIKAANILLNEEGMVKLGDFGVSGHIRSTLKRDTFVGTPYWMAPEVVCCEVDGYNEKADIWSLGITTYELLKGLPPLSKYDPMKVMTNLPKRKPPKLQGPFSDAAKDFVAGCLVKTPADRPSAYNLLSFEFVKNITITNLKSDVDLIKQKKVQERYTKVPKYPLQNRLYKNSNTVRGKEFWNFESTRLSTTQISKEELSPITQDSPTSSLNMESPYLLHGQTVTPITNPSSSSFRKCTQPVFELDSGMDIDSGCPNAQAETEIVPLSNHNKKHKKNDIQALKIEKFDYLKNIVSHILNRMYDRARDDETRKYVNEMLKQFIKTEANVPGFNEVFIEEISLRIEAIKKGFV
Assay: co-IP; SBP-tagged Sps1 captured from log-phase yeast lysates on Streptavidin Plus Ultralink Resin in IP buffer (329.2 mM NaCl, 0.0823 mM EDTA, 16.46 mM HEPES, 1.2345 mM MgCl2, 0.823% Nonidet P-40, protease and phosphatase inhibitors), washed 4 times, eluted with biotin; immunoblot with anti-Bmh antibody

binding	Substance
no binding	Bmh2 (from UniProt P34730 1-273)
no binding	Bmh1 (from UniProt P29311 1-267)
